Some entries share one result that the patent states for a list of compounds.
Legend:
Format in all cases: in vivo
Spodoptera littoralis = Spodoptera littoralis (Egyptian cotton leafworm) cotton leaf disc spray test; details: 200 ppm sprayed on cotton leaf discs, 5 L1 larvae; mortality, feeding behaviour, growth regulation 3 DAT
Heliothis virescens = Heliothis virescens (tobacco budworm) egg test on artificial diet; details: 200 ppm (concentration in well 18 ppm), eggs 0-24 h old on artificial diet; egg mortality, larval mortality, growth regulation after 4 days
Plutella xylostella = Plutella xylostella (diamond back moth) larvae test on artificial diet; details: 200 ppm (concentration in well 18 ppm), L2 larvae, larval mortality, growth regulation after 6 days
Diabrotica balteata = Diabrotica balteata (corn root worm) larvae test on artificial diet; details: 200 ppm (concentration in well 18 ppm), L2 larvae, larval mortality, growth regulation after 5 days
Myzus persicae = Myzus persicae (green peach aphid) sunflower leaf disc spray test; details: 200 ppm sprayed on sunflower leaf discs, mixed ages; mortality 6 DAT
Thrips tabaci = Thrips tabaci (onion thrips) sunflower leaf disc spray test; details: 200 ppm sprayed on sunflower leaf discs, mixed ages; mortality after 7 days
Tetranychus urticae = Tetranychus urticae (two-spotted spider mite) bean leaf disc spray test; details: 200 ppm sprayed on bean leaf discs, mixed ages; egg, larval and adult mortality 8 days later

CCc1cc(C(F)(C(F)(F)F)C(F)(F)C(F)(F)F)cc(CC)c1NC(=O)c1ccc(C#N)c(NC(=O)c2ccccc2F)c1 (stereo not drawn) [A41]
at least 80%: control of Spodoptera littoralis (Spodoptera littoralis) | control of Heliothis virescens (Heliothis virescens) | control of Plutella xylostella (Plutella xylostella) | control of Diabrotica balteata (Diabrotica balteata) | control of Myzus persicae (Myzus persicae) | control of Thrips tabaci (Thrips tabaci)

CCc1cc(C(F)(C(F)(F)F)C(F)(F)C(F)(F)F)cc(CC)c1NC(=O)c1ccc(C#N)c(NC(=O)c2ccco2)c1 (stereo not drawn) [A45]
at least 80%: control of Spodoptera littoralis (Spodoptera littoralis) | control of Heliothis virescens (Heliothis virescens) | control of Plutella xylostella (Plutella xylostella) | control of Myzus persicae (Myzus persicae) | control of Thrips tabaci (Thrips tabaci)

CCc1cc(C(F)(C(F)(F)F)C(F)(F)C(F)(F)F)cc(CC)c1NC(=O)c1ccc(C#N)c(NC(=O)c2ccc(OC(F)(F)F)cc2)c1 (stereo not drawn) [A46]
at least 80%: control of Spodoptera littoralis (Spodoptera littoralis) | control of Heliothis virescens (Heliothis virescens) | control of Plutella xylostella (Plutella xylostella) | control of Diabrotica balteata (Diabrotica balteata) | control of Myzus persicae (Myzus persicae) | control of Thrips tabaci (Thrips tabaci)

CCc1cc(C(F)(C(F)(F)F)C(F)(F)C(F)(F)F)cc(CC)c1NC(=O)c1ccc(C#N)c(NC(=O)c2ccc(C(F)(F)F)cc2)c1 (stereo not drawn) [A48]
at least 80%: control of Spodoptera littoralis (Spodoptera littoralis) | control of Heliothis virescens (Heliothis virescens) | control of Plutella xylostella (Plutella xylostella) | control of Diabrotica balteata (Diabrotica balteata) | control of Myzus persicae (Myzus persicae) | control of Thrips tabaci (Thrips tabaci)

CCc1cc(C(F)(C(F)(F)F)C(F)(F)C(F)(F)F)cc(CC)c1NC(=O)c1ccc(C#N)c(NC(=O)c2ccccc2)c1 (stereo not drawn) [A51]
at least 80%: control of Spodoptera littoralis (Spodoptera littoralis) | control of Heliothis virescens (Heliothis virescens) | control of Plutella xylostella (Plutella xylostella) | control of Diabrotica balteata (Diabrotica balteata) | control of Myzus persicae (Myzus persicae) | control of Thrips tabaci (Thrips tabaci)

CCc1cc(C(F)(C(F)(F)F)C(F)(F)C(F)(F)F)cc(CC)c1NC(=O)c1ccc(C#N)c(NC(=O)c2cc(C(F)(F)F)ccc2F)c1 (stereo not drawn) [A58]
at least 80%: control of Spodoptera littoralis (Spodoptera littoralis) | control of Heliothis virescens (Heliothis virescens) | control of Plutella xylostella (Plutella xylostella) | control of Diabrotica balteata (Diabrotica balteata) | control of Myzus persicae (Myzus persicae)

Cc1cc(C(F)(C(F)(F)F)C(F)(F)F)cc(Br)c1NC(=O)c1ccc(C#N)c(NC(=O)c2ccccc2F)c1 [A81]
at least 80%: control of Spodoptera littoralis (Spodoptera littoralis) | control of Heliothis virescens (Heliothis virescens) | control of Plutella xylostella (Plutella xylostella) | control of Diabrotica balteata (Diabrotica balteata) | control of Myzus persicae (Myzus persicae)

CCc1cc(C(F)(C(F)(F)F)C(F)(F)F)cc(Br)c1NC(=O)c1ccc(C#N)c(NC(=O)c2ccc(F)cc2)c1 [A135]
at least 80%: control of Spodoptera littoralis (Spodoptera littoralis) | control of Heliothis virescens (Heliothis virescens) | control of Plutella xylostella (Plutella xylostella) | control of Diabrotica balteata (Diabrotica balteata) | control of Thrips tabaci (Thrips tabaci) | control of Tetranychus urticae (Tetranychus urticae)

CCc1cc(C(F)(C(F)(F)F)C(F)(F)F)cc(Br)c1NC(=O)c1ccc(C#N)c(NC(=O)c2ccc(F)cc2Cl)c1 [A137]
at least 80%: control of Spodoptera littoralis (Spodoptera littoralis) | control of Heliothis virescens (Heliothis virescens) | control of Plutella xylostella (Plutella xylostella) | control of Diabrotica balteata (Diabrotica balteata) | control of Thrips tabaci (Thrips tabaci) | control of Tetranychus urticae (Tetranychus urticae)

CCc1cc(C(F)(C(F)(F)F)C(F)(F)F)cc(Br)c1NC(=O)c1ccc(C#N)c(NC(=O)c2snnc2C)c1 [A138]
at least 80%: control of Spodoptera littoralis (Spodoptera littoralis) | control of Heliothis virescens (Heliothis virescens) | control of Plutella xylostella (Plutella xylostella) | control of Diabrotica balteata (Diabrotica balteata) | control of Thrips tabaci (Thrips tabaci) | control of Tetranychus urticae (Tetranychus urticae)

CCc1cc(C(F)(C(F)(F)F)C(F)(F)C(F)(F)F)cc(Br)c1NC(=O)c1ccc(C#N)c(NC(=O)c2ccc(C#N)cc2)c1 (stereo not drawn) [A144]
at least 80%: control of Spodoptera littoralis (Spodoptera littoralis) | control of Heliothis virescens (Heliothis virescens) | control of Plutella xylostella (Plutella xylostella) | control of Diabrotica balteata (Diabrotica balteata) | control of Thrips tabaci (Thrips tabaci) | control of Tetranychus urticae (Tetranychus urticae)

CCc1cc(C(F)(C(F)(F)F)C(F)(F)C(F)(F)F)cc(Br)c1NC(=O)c1ccc(C#N)c(NC(=O)c2ccc([N+](=O)[O-])cc2Cl)c1 (stereo not drawn) [A147]
at least 80%: control of Spodoptera littoralis (Spodoptera littoralis) | control of Heliothis virescens (Heliothis virescens) | control of Plutella xylostella (Plutella xylostella) | control of Diabrotica balteata (Diabrotica balteata) | control of Thrips tabaci (Thrips tabaci) | control of Tetranychus urticae (Tetranychus urticae)

CCc1cc(C(F)(C(F)(F)F)C(F)(F)C(F)(F)F)cc(Br)c1NC(=O)c1ccc(C#N)c(NC(=O)c2ccc(F)cc2)c1 (stereo not drawn) [A155]
at least 80%: control of Spodoptera littoralis (Spodoptera littoralis) | control of Heliothis virescens (Heliothis virescens) | control of Plutella xylostella (Plutella xylostella) | control of Diabrotica balteata (Diabrotica balteata) | control of Thrips tabaci (Thrips tabaci) | control of Tetranychus urticae (Tetranychus urticae)

CCc1cc(C(F)(C(F)(F)F)C(F)(F)C(F)(F)F)cc(Br)c1NC(=O)c1ccc(C#N)c(NC(=O)c2ccc(F)cc2Cl)c1 (stereo not drawn) [A157]
at least 80%: control of Spodoptera littoralis (Spodoptera littoralis) | control of Heliothis virescens (Heliothis virescens) | control of Plutella xylostella (Plutella xylostella) | control of Diabrotica balteata (Diabrotica balteata) | control of Thrips tabaci (Thrips tabaci) | control of Tetranychus urticae (Tetranychus urticae)

CCc1cc(C(F)(C(F)(F)F)C(F)(F)C(F)(F)F)cc(Br)c1NC(=O)c1ccc(C#N)c(NC(=O)c2snnc2C)c1 (stereo not drawn) [A158]
at least 80%: control of Spodoptera littoralis (Spodoptera littoralis) | control of Heliothis virescens (Heliothis virescens) | control of Plutella xylostella (Plutella xylostella) | control of Diabrotica balteata (Diabrotica balteata) | control of Thrips tabaci (Thrips tabaci) | control of Tetranychus urticae (Tetranychus urticae)

COCc1cc(C(F)(C(F)(F)F)C(F)(F)F)cc(C)c1NC(=O)c1ccc(C#N)c(NC(=O)c2ccc(F)cc2C)c1 [A168]
at least 80%: control of Spodoptera littoralis (Spodoptera littoralis) | control of Heliothis virescens (Heliothis virescens) | control of Plutella xylostella (Plutella xylostella) | control of Diabrotica balteata (Diabrotica balteata) | control of Thrips tabaci (Thrips tabaci) | control of Tetranychus urticae (Tetranychus urticae)

Cc1cc(C(F)(C(F)(F)F)C(F)(F)F)cc(C)c1NC(=O)c1ccc(C#N)c(NC(=O)c2ccc(C#N)cc2F)c1 [A182]
at least 80%: control of Spodoptera littoralis (Spodoptera littoralis) | control of Heliothis virescens (Heliothis virescens) | control of Plutella xylostella (Plutella xylostella) | control of Diabrotica balteata (Diabrotica balteata) | control of Thrips tabaci (Thrips tabaci) | control of Tetranychus urticae (Tetranychus urticae)

Cc1cc(C(F)(C(F)(F)F)C(F)(F)F)cc(C)c1NC(=O)c1ccc(C#N)c(NC(=O)c2cccc(Cl)c2Cl)c1 [A183]
at least 80%: control of Spodoptera littoralis (Spodoptera littoralis) | control of Heliothis virescens (Heliothis virescens) | control of Plutella xylostella (Plutella xylostella) | control of Diabrotica balteata (Diabrotica balteata) | control of Thrips tabaci (Thrips tabaci) | control of Tetranychus urticae (Tetranychus urticae)

CCc1cc(C(F)(C(F)(F)F)C(F)(F)C(F)(F)F)cc(C)c1NC(=O)c1ccc(C#N)c(NC(=O)c2ccc(C#N)cc2F)c1 (stereo not drawn) [A187]
at least 80%: control of Spodoptera littoralis (Spodoptera littoralis) | control of Heliothis virescens (Heliothis virescens) | control of Plutella xylostella (Plutella xylostella) | control of Diabrotica balteata (Diabrotica balteata) | control of Thrips tabaci (Thrips tabaci) | control of Tetranychus urticae (Tetranychus urticae)

CCc1cc(C(F)(C(F)(F)F)C(F)(F)C(F)(F)F)cc(C)c1NC(=O)c1ccc(C#N)c(NC(=O)c2cccc(Cl)c2C)c1 (stereo not drawn) [A188]
at least 80%: control of Spodoptera littoralis (Spodoptera littoralis) | control of Heliothis virescens (Heliothis virescens) | control of Plutella xylostella (Plutella xylostella) | control of Diabrotica balteata (Diabrotica balteata) | control of Thrips tabaci (Thrips tabaci) | control of Tetranychus urticae (Tetranychus urticae)

CCc1cc(C(F)(C(F)(F)F)C(F)(F)C(F)(F)F)cc(C)c1NC(=O)c1ccc(C#N)c(NC(=O)c2cccc(Cl)c2)c1 (stereo not drawn) [A191]
at least 80%: control of Spodoptera littoralis (Spodoptera littoralis) | control of Heliothis virescens (Heliothis virescens) | control of Plutella xylostella (Plutella xylostella) | control of Diabrotica balteata (Diabrotica balteata) | control of Thrips tabaci (Thrips tabaci) | control of Tetranychus urticae (Tetranychus urticae)

CCc1cc(C(F)(C(F)(F)F)C(F)(F)C(F)(F)F)cc(C)c1NC(=O)c1ccc(C#N)c(NC(=O)c2ccc(C#N)nc2)c1 (stereo not drawn) [A198]
at least 80%: control of Spodoptera littoralis (Spodoptera littoralis) | control of Heliothis virescens (Heliothis virescens) | control of Plutella xylostella (Plutella xylostella) | control of Diabrotica balteata (Diabrotica balteata) | control of Thrips tabaci (Thrips tabaci) | control of Tetranychus urticae (Tetranychus urticae)

CCc1cc(C(F)(C(F)(F)F)C(F)(F)F)cc(CC)c1NC(=O)c1ccc(C#N)c(NC(=O)c2ccc(C#N)cc2)c1 [A199]
at least 80%: control of Spodoptera littoralis (Spodoptera littoralis) | control of Heliothis virescens (Heliothis virescens) | control of Plutella xylostella (Plutella xylostella) | control of Diabrotica balteata (Diabrotica balteata) | control of Thrips tabaci (Thrips tabaci) | control of Tetranychus urticae (Tetranychus urticae)

COCc1cc(C(F)(C(F)(F)F)C(F)(F)F)cc(C)c1NC(=O)c1ccc(C#N)c(NC(=O)c2ccc(F)cc2)c1 [A219]
at least 80%: control of Spodoptera littoralis (Spodoptera littoralis) | control of Heliothis virescens (Heliothis virescens) | control of Plutella xylostella (Plutella xylostella) | control of Diabrotica balteata (Diabrotica balteata) | control of Thrips tabaci (Thrips tabaci) | control of Tetranychus urticae (Tetranychus urticae)

— patent US8389766B2, “Insecticidal compounds” (Syngenta Crop Protection LLC, priority 2006, dated 2013)
